Reference: PubChem BioAssay AID445 (National Center for Advancing Translational Sciences (NCATS), 2006)
“And” between values parts separate entries of the source, which are not always exact repeats. Identical values can stand only once. The list shows a part of the results. Further columns of the screen follow, without active or inactive calls. Most of these compounds were active or inconclusive in the main read-out, so they are no random draw. The note in brackets gives the kind of curve behind each potency; many fits are weak.

Test: IkB Signaling
Conditions: ABC-DLBCL IkBa-CBG/CBR dual luciferase ratio (green luciferase fused to IkBa over red control in OCI-Ly3 lymphoma cells), 4 h
Method in brief: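 Curves were fitted separately to fusion (green), unfused (red) and ratio luminescence, then classed by r2, magnitude and activity. Cells: OCI-Ly3, 4 h compound plus doxycycline at 37C; 10 uM MG-132 defined full response.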

[1] = measured here: control luc red channel unless noted
[2] = measured here: IkB-luc green channel
[3] = measured here: control luc red channel

CN1C(=O)C(C)(C)c2cc(S(=O)(=O)NCc3ccc(C(=O)Nc4ccc(Cl)cc4)cc3)ccc21
AC50 [1]: 1.58 µM [falling, full curve]

O=C(COc1ccc2c(c1)CCC2)N1CCc2ccccc21
AC50 [1]: 31.6 µM [falling, partial curve]

CCc1ccc(-n2nc(C)c3c(C(=O)Nc4cc(OC)cc(OC)c4)cc(C)nc32)cc1
AC50 [1]: 3.98 µM [falling, partial curve]

CCC(C(=O)NC1CCCC1)N(Cc1ccc2c(c1)OCO2)C(=O)c1snc(C(N)=O)c1N (configuration not stated)
AC50 [1]: 15.8 µM [falling, partial curve] [measured here: IkB-luc green channel]

CC(C)(C)OC(=O)N1CCC[C@H]1c1nnc(SC/C=C/c2ccccc2)o1
AC50 [1]: 10 µM [falling, partial curve]

COc1cc(C2CC(=O)c3c([nH]c(C(=O)OC4CCCCC4)c3C)C2)cc(OC)c1OC (configuration not stated)
AC50 [1]: 3.98 µM [falling, partial curve]

CCOC(=O)CSC1=C(C#N)C(c2ccccc2OCC)C(C#N)C(=O)N1 (configuration not stated)
AC50 [1]: 39.8 µM [rising, single point] [measured here: IkB-luc green channel]

Cc1ccc(CNC(=O)c2c3c(nc4ccccc24)C(=O)N(C2CCCCC2)C3)cc1
AC50 [1]: 20 µM [falling, partial curve]

Cc1csc2nc(COC(=O)c3ccccc3NC(=O)c3ccc(F)cc3)cc(=O)n12
AC50 [1]: 39.8 µM [falling, single point]

COc1cccc(NC(=O)CSc2nc3ccccc3nc2N2CCOCC2)c1
AC50 [1]: 20 µM [falling, partial curve]

CCCN(C(=O)CCc1nc(-c2ccccc2F)no1)c1ccc(CC)cc1
AC50 [1]: 25.1 µM [falling, partial curve]

COc1ccc(NC(=O)c2cc3c(=O)[nH]c4ccccc4c3n2C)cc1Cl
AC50 [1]: 25.1 µM [rising, partial curve]

COc1ccc(CC(=O)NCc2nc3cccnc3n2Cc2ccc(F)cc2)cc1OC
AC50 [1]: 5.01 µM [falling, partial curve]

CCN(C(=O)c1oc2ccc(S(=O)(=O)N3CCCCCC3)cc2c1C)c1ccccc1
AC50 [1]: 15.8 µM [falling, partial curve]

CCOC(=O)c1cccc(NC(=O)CN2C(=O)CC(C)(C)Sc3ccccc32)c1
AC50 [1]: 31.6 µM [falling, partial curve]

CC1(C)CC(n2c(NCCO)nc3c(c2=O)C2(CCCC2)Cc2ccccc2-3)CCO1 (configuration not stated)
AC50 [1]: 39.8 µM [falling, single point]

CCN1C(=O)c2cccc3c(S(=O)(=O)Nc4nc(C)cs4)ccc1c23
AC50 [1]: 6.31 µM [rising, partial curve] [measured here: IkB-luc green channel]

Cc1ccc(-n2ncc(C(=O)NCCN3CCc4ccccc4C3)c2C2CCN(C(=O)OC(C)(C)C)CC2)cc1
AC50 [1]: 25.1 µM [falling, partial curve]

Cc1ccc(C(=O)Nc2c(C(=O)NCc3ccc(Cl)cc3)sc3nc(C)cc(C)c23)cc1
AC50 [1]: 15.8 µM [falling, partial curve]

Cc1ccccc1OCCn1c(CCNC(=O)C(C)(C)C)nc2ccccc21
AC50 [1]: 5.01 µM [falling, full curve]

COc1ccc(C(C)C)cc1S(=O)(=O)NCCc1c(C)[nH]c2ccc(C)cc12
AC50 [1]: 25.1 µM [falling, partial curve]

CCc1ccc(CNC(=O)c2ccc(-c3nc(CS(=O)(=O)c4ccccc4)c(C)o3)cc2)cc1
AC50 [1]: 1.26 µM [falling, full curve, poor fit]

COc1ccccc1/C=C/c1nc(C#N)c(N(C)C)o1
AC50 [1]: 0.0501 µM [rising, full curve]

COc1cc(C(=O)Nc2ccc3nc(SCc4ccccc4)sc3c2)cc(OC)c1OC
AC50 [1]: 10 µM [falling, partial curve]

CCN(C(=O)CSc1nc2ccccc2n1Cc1cc(C)ccc1C)c1ccccc1
AC50 [1]: 10 µM [falling, partial curve]

Cc1ccc(C(=O)NCC(c2cccs2)S(=O)(=O)c2cccs2)cc1 (configuration not stated)
AC50 [1]: 0.631 µM [rising, full curve]

O=C(Cn1nc(-c2ccc(Cl)cc2)ccc1=O)NCc1ccccc1Cl
AC50 [1]: 15.8 µM [falling, partial curve]

COc1cccc(C2C(C(=O)Nc3ccc(C)cc3C)=C(C)Nc3c(C(=O)Nc4cccc(C)c4)cnn32)c1OC (configuration not stated)
AC50 [1]: 15.8 µM [falling, partial curve]

N=C(N)S/C=C\C(=O)O
AC50 [1]: 31.6 µM [rising, partial curve, poor fit]

Cc1cccc(OCC(=O)N(Cc2sccc2C)C2CCS(=O)(=O)C2)c1 (configuration not stated)
AC50 [1]: 25.1 µM [falling, partial curve]

CN(C)c1ccc(/C=C2/C(=O)Nc3ccccc32)cc1
AC50 [2]: 12.6 µM [rising, partial curve]
AC50 [3]: 7.94 µM [falling, partial curve] and 2.51 nM [falling, full curve]

O=C(NCc1cccc(Cl)c1)C1CCN(C(=O)c2sccc2-n2cccc2)CC1
AC50 [1]: 31.6 µM [falling, partial curve]

CCN(CCNC(=O)C1CCN(S(=O)(=O)c2cccc3nsnc23)CC1)c1ccccc1
AC50 [1]: 12.6 µM [falling, partial curve]

COc1cccc(C(=O)Nc2cccc(C(=O)OCc3cc(=O)n4nc(C(C)C)sc4n3)c2)c1
AC50 [1]: 0.631 µM [falling, full curve]

CC(=O)N1CCC(N(C(=O)Nc2c(F)cccc2F)C(C)C)CC1
AC50 [1]: 0.00794 µM [falling, full curve, poor fit]

Cc1ccc(N(C)C(=O)c2cnc(N3CCOCC3)c3ccccc23)cc1C
AC50 [1]: 39.8 µM [falling, single point]

COc1ccc(OC)c(CNC(=O)Cc2ccc(NC(=O)N3CCCCc4ccccc43)cc2)c1
AC50 [1]: 12.6 µM [falling, partial curve]

COCCCNC(=O)c1c(NC(=O)Cc2coc3cc(C)cc(C)c23)sc2c1CCCC2
AC50 [1]: 10 µM [falling, partial curve]

CCN(CCCNC(=O)c1cc2c(=O)n(CC)c3ccccc3c2s1)c1ccccc1
AC50 [1]: 6.31 µM [falling, full curve]

c1ccc2c3c([nH]c2c1)-c1[nH]ncc1CC3
AC50 [1]: 25.1 µM [falling, single point]

O=C(c1ccc2c(c1)N(Cc1ccccc1F)C(=O)c1ccccc1S2(=O)=O)N1CCCC1
AC50 [1]: 31.6 µM [falling, single point]

O=C(NCC(c1cccnc1)N1CCc2ccccc21)c1cccc(C(F)(F)F)c1 (configuration not stated)
AC50 [1]: 15.8 µM [falling, partial curve]

CCCNC(=O)CSc1nc2nc(C)c(Cc3ccccc3Cl)c(C)n2n1
AC50 [1]: 1.58 µM [falling, full curve]

O=C(NCc1ccco1)c1cnn2c(C(F)(F)F)cc(-c3ccccc3)nc12
AC50 [1]: 12.6 µM [falling, partial curve]

Brc1ccc(CSc2nnc(Cc3c[nH]c4ccccc34)o2)cc1
AC50 [1]: 10 µM [falling, partial curve]

COc1ccc(CCCc2nnc(SCC(=O)Nc3ccc(C)cc3C)o2)cc1
AC50 [1]: 12.6 µM [falling, partial curve]

COc1ccc(-c2cc(C(=O)OC(C)C(=O)c3ccccc3)c3cccc(Cl)c3n2)cc1 (configuration not stated)
AC50 [1]: 20 µM [falling, partial curve]

c1ccc(Nc2c(-c3c[nH]c4ccccc34)nc3ccccn23)cc1
AC50 [1]: 0.0126 µM [falling, full curve]

CCOC(=O)CC(=O)CSc1ncnc2c1cnn2-c1ccccc1
AC50 [1]: 15.8 µM [falling, partial curve]

CC(C)Nc1ccc(-c2nc(-c3ccco3)no2)cc1[N+](=O)[O-]
AC50 [1]: 0.00501 µM [rising, full curve, poor fit]

Cc1ccc2nc(N3CCC(C(=O)N4CCN(c5cccc(Cl)c5)CC4)CC3)[nH]c2c1
AC50 [1]: 39.8 µM [falling, single point]

COc1cc(C(=O)NCC(c2cccs2)S(=O)(=O)c2ccc(F)cc2)cc(OC)c1OC (configuration not stated)
AC50 [2]: 3.16 µM [rising, partial curve]
AC50 [3]: 3.16 µM [rising, partial curve]

CCOC(=O)c1c(C)[nH]c(CCC(=O)Nc2ccc(C)c(F)c2)c1C
AC50 [1]: 20 µM [falling, partial curve]

Cc1ccccc1-c1noc(-c2ccc(O)cc2)n1
AC50 [1]: 20 µM [falling, single point]

Cc1cccc(OCC(=O)Nc2ccc(Cl)c(-c3nc4ncccc4o3)c2)c1C
AC50 [1]: 6.31 µM [falling, partial curve]

Cc1ccc(-n2ncc(C(=O)NCc3cccs3)c2C2CCN(C(=O)OC(C)(C)C)CC2)c(C)c1
AC50 [1]: 31.6 µM [falling, single point]

O=C(NCc1ccccc1Cl)c1ccc(CSCc2ccccc2Cl)o1
AC50 [1]: 25.1 µM [falling, single point]

COc1ccc(OC)c(NC(=O)CSc2nnc3ccc4ccccc4n23)c1
AC50 [1]: 12.6 µM [falling, single point]

Cc1cccc2cc(CN(Cc3ccco3)S(=O)(=O)c3ccc4c(c3)OCCO4)c(=O)[nH]c12
AC50 [1]: 15.8 µM [falling, partial curve]

Cc1ccc(-c2nnc(Nc3cccc(O)c3)c3ccccc23)cc1S(=O)(=O)N1CCOCC1
AC50 [1]: 15.8 µM [falling, partial curve]
